In patent US10857167B2, “Use of oligosaccharide compositions to enhance weight gain” (Children's Hospital Medical Center, priority 2015, dated 2020):
Further values from the same series stand in other lists.

Test system: distal small bowel gene expression
Assay: RNA sequencing / transcriptional analysis of small bowel 56 days after ICR (2′-FL signature response)
Type: in vivo, mouse
Description: Luminal small bowel contents were expressed into AllProtect Tissue Reagent (Qiagen Inc, CA). Bacterial DNA was extracted using the AllPrep DNA/RNA Mini Kit (Qiagen Inc, CA), according to kit instructions and prior to sequencing (described below). Small bowel tissue samples for RNA were placed into RNA Later (Life Technologies, NY). RNA extraction was accomplished following Qiagen RNeasy Plus Kit instruction (Qiagen Inc, CA). All nucleic acid samples were then stored at -80 Celsius until sequenced (described below). Transcriptional analysis was carried out on resected and harvested small bowel samples obtained from operated mice taken to 8 weeks. Murine RNA sequencing libraries were prepared from approximately 1.5 μg RNA using the TruSeq RNA Sample Preparation Kit (Illumina, Calif.) and sequenced using the HiSeq 2000 Sequencing System (Illumina, Calif.) with single-end 50 bp reads. Following removal of primers and barcodes, sequences were aligned to the mm10 genome using reference annotations from UCSC (Rosenbloom et al. (2015) Nucleic acids research 43: […]-681) (n=36,186 entities). Aligned reads were quantified and used to compute reads per kilobase per million mapped reads (RPKM); raw counts were then normalized using the DESeq algorithm and each harvested sample was baselined to its own resected sample. A filter was applied to the data, requiring at least three reads in all samples of at least one of the four experimental conditions (n=14,489 entities). The data discussed in this publication have been deposited in NCBI's Gene Expression Omnibus and are accessible through NCBI Gene Expression Omnibus (GEO) Series accession number GSE72590. Edgar et al. (2002) Nucleic acids research 30: 207-210. In order to characterize the impact of 2'-FL supplementation while accounting for the effect of ileoecal resection, a t-test was applied between resected and harvested samples within control and experimental animals. Significance was set at a p-value of ≤0.05 and a fold change of 3, which generated 2,576 differentially regulated entities across two comparisons. Gene set unions and intersections of the control and experimental gene sets were identified through Venn diagrams. From the master list, the gene list specific to animals supplemented with 2'-FL were removed in order to identify genes differentially regulated only by ICR (n=546 entities); this gene set characterizes the adaptive response. Further, the 2'-FL response (n=2,030 entities) was identified by removing the adaptive response signature described above from the master list, leaving only genes regulated by 2'-FL supplementation after ICR which were not found in the non-supplemented adaptive response. Heatmaps were generated using hierarchical clustering with the Pearson's Centered distance metric and the average linkage rule; both entities and samples were clustered. All genomic analyses described above were performed in Strand NGS (Strand Life Sciences, CA). Gene list functional enrichment was initially discovered using ToppFun, a member of the ToppGene Suite. Chen et al. (2009) Nucleic acids research 37: […]-311. No statistical correction was selected. Gene lists were further analyzed using ClueGO, a plugin for Cytoscape designed to decipher functionally grouped gene ontology and pathway annotation networks. Bindea et al. (2009) Bioinformatics 25: 1091-1093. At the time of data analysis, the annotation files were updated from sources to Jan. 1, 2015. “GO Term Fusion” was enabled to manage ontologic term redundancy and network specificity was set to medium. Results were restricted to pathways with p≤0.05 using Benjamini-Hochberg correction and Kappa scoring was set to 0.4. Biocyc annotations were assigned a rectangle, gene ontology biologic processes were assigned an ellipse, and […] annotations were assigned a diamond shape. No meaning was assigned to size or color. […]

SMILES: C[C@@H]1O[C@@H](O[C@H]2[C@H](O[C@H]3[C@H](O)[C@@H](O)C(O)O[C@@H]3CO)O[C@H](CO)[C@H](O)[C@@H]2O)[C@@H](O)[C@H](O)[C@@H]1O (stereo partly drawn) [2′-FL, 2′-fucosyllactose]
- Fold Change (Pre- to Post-op) (gene Col13a1): −5.478
- Fold Change (Pre- to Post-op) (gene Col15a1): −3.722
- Fold Change (Pre- to Post-op) (gene Col23a1): −5.39
- Fold Change (Pre- to Post-op) (gene Col28a1): −3.203
- Fold Change (Pre- to Post-op) (gene Colq): −5.085
- Fold Change (Pre- to Post-op) (gene Commd3): 3.032
- Fold Change (Pre- to Post-op) (gene Copa): −3.081
- Fold Change (Pre- to Post-op) (gene Coro2b): −8.663
- Fold Change (Pre- to Post-op) (gene Cp): −3.369
- Fold Change (Pre- to Post-op) (gene Cpeb4): −7.155
- Fold Change (Pre- to Post-op) (gene Cped1): −3.329
- Fold Change (Pre- to Post-op) (gene Cplx1): −5.116
- Fold Change (Pre- to Post-op) (gene Cpm): −4.795
- Fold Change (Pre- to Post-op) (gene Cpne4): −4.107
- Fold Change (Pre- to Post-op) (gene Cpt1a): −3.075
- Fold Change (Pre- to Post-op) (gene Cramp1l): −3.07
- Fold Change (Pre- to Post-op) (gene Creb3l1): −5.494
- Fold Change (Pre- to Post-op) (gene Creb3l2): −3.832
- Fold Change (Pre- to Post-op) (gene Crebbp): −7.823
- Fold Change (Pre- to Post-op) (gene Crispld2): −3.162
- Fold Change (Pre- to Post-op) (gene Crtc3): −5.019
- Fold Change (Pre- to Post-op) (gene Csf1): −3.627
- Fold Change (Pre- to Post-op) (gene Csf1r): −6.703
- Fold Change (Pre- to Post-op) (gene Csf2rb2): −4.41
- Fold Change (Pre- to Post-op) (gene Cspg4): −3.052
- Fold Change (Pre- to Post-op) (gene Ctc1): −3.669
- Fold Change (Pre- to Post-op) (gene Ctif): −4.689
- Fold Change (Pre- to Post-op) (gene Ctnnd1): −3.227
- Fold Change (Pre- to Post-op) (gene Ctnnd2): −3.844
- Fold Change (Pre- to Post-op) (gene Cul7): −5.784
- Fold Change (Pre- to Post-op) (gene Cul9): −3.897
- Fold Change (Pre- to Post-op) (gene Cux2): −3.623
- Fold Change (Pre- to Post-op) (gene Cyfip2): −7.683
- Fold Change (Pre- to Post-op) (gene Cyp2e1): −6.806
- Fold Change (Pre- to Post-op) (gene Cyyr1): −3.918
- Fold Change (Pre- to Post-op) (gene D8Ertd82e): −5.422
- Fold Change (Pre- to Post-op) (gene D10Bwg1379e): −5.781
- Fold Change (Pre- to Post-op) (gene D430019H16Rik): −4.877
- Fold Change (Pre- to Post-op) (gene D630003M21Rik): −3.987
- Fold Change (Pre- to Post-op) (gene D930015E06Rik): −5.945
- Fold Change (Pre- to Post-op) (gene Daam2): −6.254
- Fold Change (Pre- to Post-op) (gene Dab2ip): −3.611
- Fold Change (Pre- to Post-op) (gene Dag1): −4.424
- Fold Change (Pre- to Post-op) (gene Dapk1): −3.851
- Fold Change (Pre- to Post-op) (gene Darc): −3.371
- Fold Change (Pre- to Post-op) (gene Dbh): −6.587
- Fold Change (Pre- to Post-op) (gene Dchs1): −7.422
- Fold Change (Pre- to Post-op) (gene Dclk1): −3.24
- Fold Change (Pre- to Post-op) (gene Ddr2): −3.873
- Fold Change (Pre- to Post-op) (gene Dennd1a): −3.174
- Fold Change (Pre- to Post-op) (gene Dennd1c): −3.312
- Fold Change (Pre- to Post-op) (gene Dhdh): −3.285
- Fold Change (Pre- to Post-op) (gene Dhx8): −3.474
- Fold Change (Pre- to Post-op) (gene Dhx9): −6.337
- Fold Change (Pre- to Post-op) (gene Dhx34): −3.353
- Fold Change (Pre- to Post-op) (gene Dip2c): −3.396
- Fold Change (Pre- to Post-op) (gene Disp2): −4.889
- Fold Change (Pre- to Post-op) (gene Dlc1): −5.546
- Fold Change (Pre- to Post-op) (gene Dlg5): −3.613
- Fold Change (Pre- to Post-op) (gene Dlgap3): −3.499
- Fold Change (Pre- to Post-op) (gene Dmp1): −3.697
- Fold Change (Pre- to Post-op) (gene Dmtn): −3.126
- Fold Change (Pre- to Post-op) (gene Dmwd): −4.25
- Fold Change (Pre- to Post-op) (gene Dnah8): −4.012
- Fold Change (Pre- to Post-op) (gene Dnajc16): −4.169
- Fold Change (Pre- to Post-op) (gene Dnase1l3): −4.068
- Fold Change (Pre- to Post-op) (gene Dnm2): −3.376
- Fold Change (Pre- to Post-op) (gene Dnmbp): −6.6
- Fold Change (Pre- to Post-op) (gene Dnmt3a): −4.121
- Fold Change (Pre- to Post-op) (gene Dock1): −3.181
- Fold Change (Pre- to Post-op) (gene Dock2): −4.983
- Fold Change (Pre- to Post-op) (gene Dock5): −3.284
- Fold Change (Pre- to Post-op) (gene Dopey2): −3.474
- Fold Change (Pre- to Post-op) (gene Dot1l): −4.032
- Fold Change (Pre- to Post-op) (gene Dpp6): −8.042
- Fold Change (Pre- to Post-op) (gene Dpp9): −3.033
- Fold Change (Pre- to Post-op) (gene Dpysl3): −6.419
- Fold Change (Pre- to Post-op) (gene Drosha): −4.216
- Fold Change (Pre- to Post-op) (gene Dsp): −3.496
- Fold Change (Pre- to Post-op) (gene Dst): −3.608
- Fold Change (Pre- to Post-op) (gene Dtx1): −5.117
- Fold Change (Pre- to Post-op) (gene Duox1): −4.169
- Fold Change (Pre- to Post-op) (gene Dusp2): −4.787
- Fold Change (Pre- to Post-op) (gene Dvl3): −4.445
- Fold Change (Pre- to Post-op) (gene Dysf): −4.139
- Fold Change (Pre- to Post-op) (gene Dzip1): −3.169
- Fold Change (Pre- to Post-op) (gene Ebf3): −5.085
- Fold Change (Pre- to Post-op) (gene Ece1): −4.106
- Fold Change (Pre- to Post-op) (gene Eef2k): −3.648
- Fold Change (Pre- to Post-op) (gene Efna5): −3.069
- Fold Change (Pre- to Post-op) (gene Ehd3): −3.327
- Fold Change (Pre- to Post-op) (gene Eif4ebp2): −3.825
- Fold Change (Pre- to Post-op) (gene Eif4g1): −3.375
- Fold Change (Pre- to Post-op) (gene Elac2): −3.024
- Fold Change (Pre- to Post-op) (gene Elavl3): −4.902
- Fold Change (Pre- to Post-op) (gene Elavl4): −7.496
- Fold Change (Pre- to Post-op) (gene Elf4): −3.981
- Fold Change (Pre- to Post-op) (gene Elk3): −3.185
- Fold Change (Pre- to Post-op) (gene Elmsan1): −3.82
- Fold Change (Pre- to Post-op) (gene Emilin1): −3.789
- Fold Change (Pre- to Post-op) (gene Eml2): −3.933
- Fold Change (Pre- to Post-op) (gene Eml6): −4.171
- Fold Change (Pre- to Post-op) (gene Eng): −3.419
- Fold Change (Pre- to Post-op) (gene Enpp6): −3.441
- Fold Change (Pre- to Post-op) (gene Epas1): −4.457
- Fold Change (Pre- to Post-op) (gene Epb4.1l3): −4.333
- Fold Change (Pre- to Post-op) (gene Ephb2): −3.149
- Fold Change (Pre- to Post-op) (gene Eppk1): −3.024
- Fold Change (Pre- to Post-op) (gene Erbb3): −7.3
- Fold Change (Pre- to Post-op) (gene Erc1): −3.129
- Fold Change (Pre- to Post-op) (gene Ercc2): −3.182
- Fold Change (Pre- to Post-op) (gene Ern1): −3.525
- Fold Change (Pre- to Post-op) (gene Ern2): −4.086
- Fold Change (Pre- to Post-op) (gene Esrp2): −3.224
- Fold Change (Pre- to Post-op) (gene Esyt1): −4.748
- Fold Change (Pre- to Post-op) (gene Etl4): −3.372
- Fold Change (Pre- to Post-op) (gene Ets1): −3.789
- Fold Change (Pre- to Post-op) (gene Extl3): −3.308
- Fold Change (Pre- to Post-op) (gene Eya1): −3.606
- Fold Change (Pre- to Post-op) (gene F830016B08Rik): −4.1309
